Source: the supplement of paper PMC12819154, “High-throughput peptide-centric local stability assay extends protein–ligand identification to membrane proteins, tissues and bacteria” (Nature Structural & Molecular Biology, 2025)
The list shows a part of the results. Most values lie at the level of the controls, where differences are scatter.

Protein sequences, listed by entry. Tags and fused reporters are not part of them. Lines headed by an entry give the natural chain unless they say otherwise; changes in a name come on top.
UniProt Q91VX9: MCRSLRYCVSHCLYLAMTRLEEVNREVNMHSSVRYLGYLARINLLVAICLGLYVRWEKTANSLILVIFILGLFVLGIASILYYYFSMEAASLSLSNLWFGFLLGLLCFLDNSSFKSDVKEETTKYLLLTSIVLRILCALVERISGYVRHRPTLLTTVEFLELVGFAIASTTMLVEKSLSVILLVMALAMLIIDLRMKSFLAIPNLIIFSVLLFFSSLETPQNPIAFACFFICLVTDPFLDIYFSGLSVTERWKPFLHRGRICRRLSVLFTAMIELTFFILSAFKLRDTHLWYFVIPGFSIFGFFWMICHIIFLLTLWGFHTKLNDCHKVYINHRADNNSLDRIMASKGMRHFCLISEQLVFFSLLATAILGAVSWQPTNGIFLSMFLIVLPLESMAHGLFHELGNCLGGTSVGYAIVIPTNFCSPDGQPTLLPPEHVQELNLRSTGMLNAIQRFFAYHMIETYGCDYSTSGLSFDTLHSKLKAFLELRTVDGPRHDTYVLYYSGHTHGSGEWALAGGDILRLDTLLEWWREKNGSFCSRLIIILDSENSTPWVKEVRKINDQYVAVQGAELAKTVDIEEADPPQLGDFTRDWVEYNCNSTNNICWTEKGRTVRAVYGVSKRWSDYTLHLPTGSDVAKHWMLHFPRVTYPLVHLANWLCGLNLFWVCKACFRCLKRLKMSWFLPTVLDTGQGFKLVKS
UniProt Q91ZJ5: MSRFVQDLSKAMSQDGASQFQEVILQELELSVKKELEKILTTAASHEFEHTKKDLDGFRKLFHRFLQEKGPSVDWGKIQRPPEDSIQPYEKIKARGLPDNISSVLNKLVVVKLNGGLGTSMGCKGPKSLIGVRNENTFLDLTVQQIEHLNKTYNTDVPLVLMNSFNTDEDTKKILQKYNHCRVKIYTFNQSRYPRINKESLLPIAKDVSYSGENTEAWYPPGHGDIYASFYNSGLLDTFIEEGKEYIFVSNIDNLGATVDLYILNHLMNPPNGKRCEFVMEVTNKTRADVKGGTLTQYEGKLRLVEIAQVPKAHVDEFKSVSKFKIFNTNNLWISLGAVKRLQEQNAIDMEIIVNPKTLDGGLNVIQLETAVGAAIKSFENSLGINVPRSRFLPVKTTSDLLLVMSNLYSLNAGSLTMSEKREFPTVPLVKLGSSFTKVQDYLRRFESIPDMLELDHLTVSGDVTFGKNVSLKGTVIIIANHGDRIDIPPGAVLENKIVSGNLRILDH
UniProt Q8VIG1: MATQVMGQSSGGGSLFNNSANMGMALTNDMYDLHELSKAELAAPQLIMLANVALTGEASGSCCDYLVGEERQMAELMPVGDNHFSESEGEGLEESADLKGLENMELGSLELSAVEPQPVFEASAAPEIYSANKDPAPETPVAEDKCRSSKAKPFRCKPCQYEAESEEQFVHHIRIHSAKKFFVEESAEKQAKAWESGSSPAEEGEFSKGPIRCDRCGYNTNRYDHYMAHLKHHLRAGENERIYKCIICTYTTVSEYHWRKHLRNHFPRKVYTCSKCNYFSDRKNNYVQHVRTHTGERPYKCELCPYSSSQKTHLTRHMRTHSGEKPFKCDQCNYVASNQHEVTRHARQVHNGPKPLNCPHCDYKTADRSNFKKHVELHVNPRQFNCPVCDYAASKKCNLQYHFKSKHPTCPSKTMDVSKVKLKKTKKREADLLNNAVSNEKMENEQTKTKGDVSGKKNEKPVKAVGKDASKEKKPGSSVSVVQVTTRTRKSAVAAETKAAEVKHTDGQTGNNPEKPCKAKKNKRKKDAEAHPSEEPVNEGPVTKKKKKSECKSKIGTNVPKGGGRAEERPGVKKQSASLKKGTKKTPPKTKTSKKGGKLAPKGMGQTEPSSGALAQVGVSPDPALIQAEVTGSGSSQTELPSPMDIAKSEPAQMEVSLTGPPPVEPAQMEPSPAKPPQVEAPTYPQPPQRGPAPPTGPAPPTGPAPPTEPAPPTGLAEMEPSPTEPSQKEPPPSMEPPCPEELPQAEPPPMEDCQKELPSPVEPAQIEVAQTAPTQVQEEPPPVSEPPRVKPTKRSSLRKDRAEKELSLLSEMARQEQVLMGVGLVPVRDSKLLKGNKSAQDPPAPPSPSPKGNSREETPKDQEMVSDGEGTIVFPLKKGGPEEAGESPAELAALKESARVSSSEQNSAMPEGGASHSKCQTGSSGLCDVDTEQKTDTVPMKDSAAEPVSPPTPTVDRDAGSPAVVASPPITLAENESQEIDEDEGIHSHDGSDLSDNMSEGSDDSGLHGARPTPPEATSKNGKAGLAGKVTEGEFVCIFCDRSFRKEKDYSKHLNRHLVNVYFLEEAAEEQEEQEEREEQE
UniProt Q91V12: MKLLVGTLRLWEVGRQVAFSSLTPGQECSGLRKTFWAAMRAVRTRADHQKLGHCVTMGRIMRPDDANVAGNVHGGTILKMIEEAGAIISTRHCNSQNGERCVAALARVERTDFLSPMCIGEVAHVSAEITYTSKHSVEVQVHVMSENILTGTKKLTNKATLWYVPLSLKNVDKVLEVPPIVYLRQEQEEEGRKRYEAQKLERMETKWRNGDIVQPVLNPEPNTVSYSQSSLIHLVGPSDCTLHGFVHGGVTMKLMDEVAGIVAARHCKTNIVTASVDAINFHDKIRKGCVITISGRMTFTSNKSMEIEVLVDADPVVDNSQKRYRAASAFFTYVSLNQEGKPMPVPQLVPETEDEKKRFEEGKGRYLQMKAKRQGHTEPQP
UniProt Q91YJ3: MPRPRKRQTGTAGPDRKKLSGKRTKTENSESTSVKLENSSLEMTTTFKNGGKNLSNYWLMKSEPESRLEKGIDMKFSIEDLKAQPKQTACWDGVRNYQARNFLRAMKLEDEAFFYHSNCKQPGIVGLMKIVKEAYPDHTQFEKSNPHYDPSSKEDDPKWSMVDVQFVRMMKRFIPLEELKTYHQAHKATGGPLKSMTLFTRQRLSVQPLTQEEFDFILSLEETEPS
UniProt Q91XE9: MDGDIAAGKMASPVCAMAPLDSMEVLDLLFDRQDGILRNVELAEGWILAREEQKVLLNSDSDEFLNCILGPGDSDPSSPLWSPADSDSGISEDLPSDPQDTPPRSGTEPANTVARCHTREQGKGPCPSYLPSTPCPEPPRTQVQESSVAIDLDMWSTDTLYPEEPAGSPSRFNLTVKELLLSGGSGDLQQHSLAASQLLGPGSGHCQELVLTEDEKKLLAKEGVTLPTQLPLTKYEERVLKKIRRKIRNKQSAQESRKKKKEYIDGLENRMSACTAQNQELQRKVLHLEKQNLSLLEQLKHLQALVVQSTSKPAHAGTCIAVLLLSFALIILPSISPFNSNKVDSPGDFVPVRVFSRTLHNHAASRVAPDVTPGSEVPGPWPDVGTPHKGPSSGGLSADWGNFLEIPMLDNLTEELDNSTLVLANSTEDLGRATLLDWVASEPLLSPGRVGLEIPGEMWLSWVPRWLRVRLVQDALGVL
UniProt Q91Y47: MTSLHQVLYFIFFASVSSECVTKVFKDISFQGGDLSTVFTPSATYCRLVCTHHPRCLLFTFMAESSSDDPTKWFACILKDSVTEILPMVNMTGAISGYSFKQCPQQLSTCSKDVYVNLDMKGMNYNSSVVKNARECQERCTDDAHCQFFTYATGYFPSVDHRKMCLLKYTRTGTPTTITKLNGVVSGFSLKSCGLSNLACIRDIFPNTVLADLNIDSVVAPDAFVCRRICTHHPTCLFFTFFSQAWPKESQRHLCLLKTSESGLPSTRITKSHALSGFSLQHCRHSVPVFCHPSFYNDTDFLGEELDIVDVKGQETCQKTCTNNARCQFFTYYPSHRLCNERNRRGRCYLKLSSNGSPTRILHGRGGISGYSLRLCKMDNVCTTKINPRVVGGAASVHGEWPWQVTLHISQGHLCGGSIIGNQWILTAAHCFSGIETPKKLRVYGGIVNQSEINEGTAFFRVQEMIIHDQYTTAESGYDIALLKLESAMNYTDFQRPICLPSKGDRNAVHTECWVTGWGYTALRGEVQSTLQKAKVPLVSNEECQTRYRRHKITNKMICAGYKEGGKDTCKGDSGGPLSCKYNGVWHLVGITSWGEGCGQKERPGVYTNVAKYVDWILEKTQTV
UniProt Q91WM3: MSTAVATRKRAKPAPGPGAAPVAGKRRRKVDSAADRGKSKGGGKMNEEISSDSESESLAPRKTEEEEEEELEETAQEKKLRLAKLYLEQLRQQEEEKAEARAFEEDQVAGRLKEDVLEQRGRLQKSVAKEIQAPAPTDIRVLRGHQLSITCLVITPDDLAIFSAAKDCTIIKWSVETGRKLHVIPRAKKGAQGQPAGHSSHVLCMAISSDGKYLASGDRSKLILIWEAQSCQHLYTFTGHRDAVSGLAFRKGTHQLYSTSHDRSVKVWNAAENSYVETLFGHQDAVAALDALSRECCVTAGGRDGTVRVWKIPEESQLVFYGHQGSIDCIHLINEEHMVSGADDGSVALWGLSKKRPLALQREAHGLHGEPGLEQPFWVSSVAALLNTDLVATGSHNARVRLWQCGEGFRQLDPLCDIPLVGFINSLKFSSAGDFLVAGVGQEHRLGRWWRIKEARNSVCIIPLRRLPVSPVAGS
UniProt Q8VI36, whole entry: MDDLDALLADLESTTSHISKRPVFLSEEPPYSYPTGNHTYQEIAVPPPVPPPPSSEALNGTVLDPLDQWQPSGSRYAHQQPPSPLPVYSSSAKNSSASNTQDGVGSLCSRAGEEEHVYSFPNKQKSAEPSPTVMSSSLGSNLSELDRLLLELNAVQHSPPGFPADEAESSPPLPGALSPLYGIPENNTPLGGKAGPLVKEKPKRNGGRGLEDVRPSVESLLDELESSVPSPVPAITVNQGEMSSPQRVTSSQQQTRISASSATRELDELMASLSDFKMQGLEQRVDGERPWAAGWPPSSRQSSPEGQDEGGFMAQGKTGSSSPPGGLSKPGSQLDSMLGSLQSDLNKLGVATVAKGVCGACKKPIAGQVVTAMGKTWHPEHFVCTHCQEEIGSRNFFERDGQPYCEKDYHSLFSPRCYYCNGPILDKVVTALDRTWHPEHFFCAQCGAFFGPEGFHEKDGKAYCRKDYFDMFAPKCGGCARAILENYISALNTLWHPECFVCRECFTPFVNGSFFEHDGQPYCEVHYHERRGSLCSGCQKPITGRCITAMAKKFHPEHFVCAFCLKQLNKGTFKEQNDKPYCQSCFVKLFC
UniProt Q91XA2: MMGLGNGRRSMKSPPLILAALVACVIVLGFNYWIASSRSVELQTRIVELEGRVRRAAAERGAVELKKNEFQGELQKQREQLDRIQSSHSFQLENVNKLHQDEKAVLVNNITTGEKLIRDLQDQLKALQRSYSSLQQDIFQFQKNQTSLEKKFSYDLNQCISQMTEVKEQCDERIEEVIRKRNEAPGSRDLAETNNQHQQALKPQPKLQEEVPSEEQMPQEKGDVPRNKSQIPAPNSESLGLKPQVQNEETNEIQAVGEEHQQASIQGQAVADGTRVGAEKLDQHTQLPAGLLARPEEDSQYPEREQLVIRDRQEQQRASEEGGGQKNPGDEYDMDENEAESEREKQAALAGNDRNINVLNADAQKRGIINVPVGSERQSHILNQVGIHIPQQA
UniProt Q8VI93: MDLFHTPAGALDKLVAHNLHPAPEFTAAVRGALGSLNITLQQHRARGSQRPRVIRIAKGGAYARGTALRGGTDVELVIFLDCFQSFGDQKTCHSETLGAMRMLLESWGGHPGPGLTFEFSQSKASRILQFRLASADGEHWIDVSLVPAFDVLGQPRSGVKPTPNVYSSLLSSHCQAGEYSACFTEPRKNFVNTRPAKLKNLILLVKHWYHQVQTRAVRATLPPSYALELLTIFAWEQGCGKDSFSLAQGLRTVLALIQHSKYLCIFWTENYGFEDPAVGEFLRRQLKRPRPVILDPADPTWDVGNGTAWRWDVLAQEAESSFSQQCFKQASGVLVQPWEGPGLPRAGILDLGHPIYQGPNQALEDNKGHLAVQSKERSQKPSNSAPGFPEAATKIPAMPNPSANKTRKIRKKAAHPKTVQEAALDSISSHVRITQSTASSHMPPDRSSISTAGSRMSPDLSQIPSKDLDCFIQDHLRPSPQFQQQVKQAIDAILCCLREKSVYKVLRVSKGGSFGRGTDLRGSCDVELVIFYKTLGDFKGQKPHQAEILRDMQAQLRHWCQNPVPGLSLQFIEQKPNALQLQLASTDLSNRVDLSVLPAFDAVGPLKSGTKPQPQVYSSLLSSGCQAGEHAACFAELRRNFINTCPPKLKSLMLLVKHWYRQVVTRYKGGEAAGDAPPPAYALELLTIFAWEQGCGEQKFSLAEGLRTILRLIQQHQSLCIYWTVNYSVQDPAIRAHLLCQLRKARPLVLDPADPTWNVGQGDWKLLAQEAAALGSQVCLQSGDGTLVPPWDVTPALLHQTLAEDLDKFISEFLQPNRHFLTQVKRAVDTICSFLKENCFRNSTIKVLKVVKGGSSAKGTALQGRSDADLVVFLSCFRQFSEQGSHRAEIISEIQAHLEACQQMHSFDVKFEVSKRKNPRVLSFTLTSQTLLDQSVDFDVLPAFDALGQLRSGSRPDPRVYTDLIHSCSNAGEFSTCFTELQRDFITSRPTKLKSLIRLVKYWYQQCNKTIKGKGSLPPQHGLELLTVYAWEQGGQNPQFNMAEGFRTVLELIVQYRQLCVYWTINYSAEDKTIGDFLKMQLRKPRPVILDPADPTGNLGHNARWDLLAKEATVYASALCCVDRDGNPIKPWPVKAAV

The targets below were run with CN[C@@H]1C[C@H]2O[C@@](C)([C@@H]1OC)n1c3ccccc3c3c4c(c5c6ccccc6n2c5c31)C(=O)NC4 [staurosporine] (assay: log2 fold change of tryptic peptide abundance, ligand vs vehicle (limited proteolysis) (log2 ratio); higher = more trypsin-susceptible (destabilized)). Conditions: ligand concentration: 20 uM; sample: mouse liver crude lysate; replicate design: treated separately.

Target	log2 fold change
UniProt Q91VX9 (peptide sequence: KINDQYVAVQGAELAK, peptide start residue: 558)	0.396
UniProt Q91ZJ5 (peptide sequence: EFPTVPLVK, peptide start residue: 423)	-0.764
UniProt Q91XD4 (peptide sequence: RLIPPFHAASAQLTSLVDADAR, peptide start residue: 393)	0.193
UniProt Q91W86 (peptide sequence: GDREALSCR, peptide start residue: 579)	-1.12
UniProt Q8VIG1 (peptide sequence: KKDAEAHPSEEPVNEGPVTK, peptide start residue: 525)	-0.695
UniProt Q91V12 (peptide sequence: MIEEAGAIISTR, peptide start residue: 80)	0.154
UniProt Q91VC4 (peptide sequence: AAQAAQEAR, peptide start residue: 311)	-0.975
UniProt Q8WUR0 (peptide sequence: PIMVDDIMR, peptide start residue: 2)	0.0815
UniProt Q91XC8 (peptide sequence: IVQKHPHTGDGKEER, peptide start residue: 26)	-0.0745
UniProt Q91WA4 (peptide sequence: SGAVASLLSK, peptide start residue: 133)	-0.0861
UniProt Q91WP0 (peptide sequence: LSSCTYSIR, peptide start residue: 208)	-0.266
UniProt Q91V80 (peptide sequence: LGGVEATQALIHHLQELQK, peptide start residue: 104)	0.105
UniProt Q91YJ5 (peptide sequence: DAEVPIILAINKCDK, peptide start residue: 278)	0.785
UniProt Q91W63 (peptide sequence: FVIGIGGVTNGGK, peptide start residue: 4)	-0.0367
UniProt Q91WD4 (peptide sequence: VDRDNVLAR, peptide start residue: 225)	0.429
UniProt Q91VK1 (peptide sequence: DEKEKFEPTVFR, peptide start residue: 20)	0.518
UniProt Q91WS4 (peptide sequence: AGLWTPEAVVEHPSAVR, peptide start residue: 41)	-0.198
UniProt Q91YT2 (peptide sequence: DKVIPLYGR, peptide start residue: 86)	-0.0731

Target	log2 fold change
UniProt Q8VHZ7 (peptide sequence: ALEENQLIPTELRR, peptide start residue: 35)	-0.193
UniProt Q91ZT9 (peptide sequence: TALHYAAER, peptide start residue: 88)	0.0727
UniProt Q91YJ3 (peptide sequence: LEDEAFFYHSNCK, peptide start residue: 108)	-0.544
UniProt Q91XE9 (peptide sequence: KKEYIDGLENR, peptide start residue: 260)	-0.145
UniProt Q91WL8 (peptide sequence: LAFTVDDNPTKPTTR, peptide start residue: 90)	-0.207
UniProt Q91Y47 (peptide sequence: ERPGVYTNVAK, peptide start residue: 602)	0.882
UniProt Q8VI84 (peptide sequence: KHESVIEK, peptide start residue: 126)	-0.267
UniProt Q91WG2 (peptide sequence: QQQQQDFEEKDR, peptide start residue: 96)	0.323
UniProt Q91WM3 (peptide sequence: LYLEQLR, peptide start residue: 85)	-0.097
UniProt Q91XE0 (peptide sequence: QHLQIQSSQSHLNK, peptide start residue: 100)	-0.202
UniProt Q8VI36 (peptide sequence: AGEEEHVYSFPNK, peptide start residue: 111)	-0.116
UniProt Q91W78 (peptide sequence: SKPGTGFHR, peptide start residue: 26)	0.155
UniProt Q91VV4 (peptide sequence: ILEYEEQKK, peptide start residue: 453)	-0.372
UniProt Q91W61 (peptide sequence: ALVQLHLAR, peptide start residue: 53)	0.397
UniProt Q91XA2 (peptide sequence: GIINVPVGSER, peptide start residue: 367)	-0.268
UniProt Q91ZM2 (peptide sequence: VGGPLAVLGPSR, peptide start residue: 114)	0.307
UniProt Q8VI93 (peptide sequence: LVAHNLHPAPEFTAAVR, peptide start residue: 14)	0.191
UniProt Q91VZ6 (peptide sequence: LNEQHQLILSK, peptide start residue: 13)	-0.2
